Source: patent US20100041089A1, “IMPROVED METHOD FOR DETECTING CHEMICAL […]” (priority 2006, published 2010)
“And” between values parts separate entries of the source, which are not always exact repeats. Equal values may be shown once. The name of at least one read-out is uncertain.

Tested on: yeast genes (expressed mRNA)
Experiment: DNA chip measurement of expressed mRNA of yeast genes after culture with a toxic chemical substance
Type: cell-based, Saccharomyces cerevisiae S288C
Settings: DNA repair protein genes, cultured two hours with substance
Experimental: Yeast (Saccharomyces cerevisiae S288C (a SUC2mal mel gap2 CUP1)) were cultured at 25° C. on YPD medium (yeast extract 1%, polypeptone 2%, glucose 2%). One of toxic chemical substances was added to the cell at logarithmic growth phase, and the cell was further cultured for two hours. Cell was cultured without any chemical substance in the same condition, and was used as a control. Concentrations of the chemical substances were defined to inhibit the growth of the yeast but not lead to death.
After the completion of cultivation, the culture was centrifuged to collect the cells. […] Reverse transcription of the mRNA was conducted with a reverse transcriptase (Super Script II Reverse Transcriptase; catalogue No. 18064-014, GibcoBRL) using fluorescence-labeled nucleotides to give cDNAs that were introduced with Cy3-dUTP or Cy5-dUTP during the reverse transcription.
The labeled cDNAs were dissolved in TE buffer (10 mM Tris-HCl/1 mM EDTA, pH 8.0), and the solution was dropped on the DNA chip containing the whole genes of yeast (DNA Chip Research Inc. Japan) so that the cDNAs were hybridized on the DNA chip at 65° C. for over 12 hours. The fluoresces intensity of the DNA chip was read with a scanner, and the ratio relative to the fluorescence intensity resulting from the absence of chemical substance was estimated as the following, which is shown in Tables 1 to 9. […]

Compound: Oc1cc(Cl)c(Cl)cc1Cl [(6), 2,4,5-Trichlorophenol]
- The level of expressed mRNA in the presence of chemical substance/The level of expressed mRNA in the absence of chemical substance (yeast gene YGR180C): 0.6 and 1.0
- The level of expressed mRNA in the presence of chemical substance/The level of expressed mRNA in the absence of chemical substance (yeast gene YMR284W): 0.8 and 1.2
